Measurements from the supplement of paper PMC9015667.
Where a name gives a salt, the structure may show the parent alone. The list shows a part of the results. Single values are uncertain, as repeats are few or missing.

Test system: M249P (parental melanoma line)
Experiment: reduction in cell viability relative to untreated/vehicle; higher = more growth inhibition
Conditions: 200 nM; 72 h

| SMILES | reduction in cell viability [%] |
| --- | --- |
| O=C(/C=C/c1cccc(S(=O)(=O)Nc2ccccc2)c1)NO [Belinostat] | 1.08 |
| CN(C)c1nc(N(C)C)nc(N(C)C)n1 [Altretamine] | < 0 |
| COc1ccc2ccc(=O)oc2c1CC=C(C)C [Ostol] | < 0 |
| CN1CC(=O)N2[C@H](c3ccc4c(c3)OCO4)c3[nH]c4ccccc4c3C[C@@H]2C1=O [Tadalafil] | < 0 |
| OC(c1cc(C(F)(F)F)nc2c(C(F)(F)F)cccc12)C1CCCCN1 (stereo not given) [Mefloquine] | < 0 |
| CN1CCN(c2ccc3nc(-c4c(N)c5c(F)cccc5[nH]c4=O)[nH]c3c2)CC1 [Dovitinib] | 24.3 |
| c1ccc([C@H]2CN3CCSC3=N2)cc1 [L-tetramisol] | < 0 |
| COc1ncc(-c2ccc3nccc(-c4ccnnc4)c3c2)cc1NS(=O)(=O)c1ccc(F)cc1F | 76.5 |
| CNC(=O)c1ccc2cc([C@@]3(O)CCn4cncc43)ccc2c1 [Orteronel] | < 0 |
| O=c1c(O)c(-c2ccc(O)cc2)oc2cc(O)cc(O)c12 [Kaempferol] | < 0 |
| Clc1ccc(COC(Cn2ccnc2)c2ccc(Cl)cc2Cl)cc1 (stereo not given) [Econazole nitrate] | < 0 |

Test system: M249R (matched melanoma line resistant to BRAF inhibitors)
Experiment: as above
Conditions: 200 nM; 72 h

| SMILES | reduction in cell viability [%] |
| --- | --- |
| O=c1[nH]c(=O)n([C@H]2C[C@H](O)[C@@H](CO)O2)cc1C(F)(F)F [Trifluridine] | < 0 |
| C[C@@H](Oc1cc(-n2cnc3ccc(CN4CCN(C)CC4)cc32)sc1C(N)=O)c1ccccc1C(F)(F)F | 5.89 |
| Cc1ccc(S(=O)(=O)N[C@@H](Cc2ccccc2)C(=O)CCl)cc1 | < 0 |
| Cn1cc(C2=C(c3ccc(Cl)cc3Cl)C(=O)NC2=O)c2ccccc21 | < 0 |
| CCc1c2c(nc3ccc(O)cc13)-c1cc3c(c(=O)n1C2)COC(=O)[C@]3(O)CC | 67.3 |
| CCC1(c2ccccc2)C(=O)NCNC1=O [Primidone] | < 0 |
| O=C1CN2Cc3c(ccc(Cl)c3Cl)N=C2N1 [anagrelide] | < 0 |
| O=NN(CCCl)C(=O)NC1CCCCC1 [Lomustine] | < 0 |
| COC(=O)Nc1nc2cc(C(=O)c3ccccc3)ccc2[nH]1 [Mebendazole] | 29 |
| O=C(c1ccc(F)c(F)c1Nc1ccc(I)cc1F)N1CC(O)([C@@H]2CCCCN2)C1 | 80.1 |
| NC(=O)c1ccc(I)c([N+](=O)[O-])c1 [Iniparib] | < 0 |
| CCn1c(=O)c2c(nc(/C=C/c3ccc(OC)c(OC)c3)n2C)n(CC)c1=O [Istradefylline] | 0.68 |
| Cc1ccc2c(=O)c3cccc(CC(=O)O)c3oc2c1C [Vadimezan] | < 0 |
| Cc1cc(C(C)Nc2ccccc2)c2nc(N3CCOCC3)cc(=O)n2c1 (stereo not given) | < 0 |
| O=NN(CCCl)C(=O)NCCCl [Carmustine] | < 0 |
| NC(=O)[C@@H](CCC(F)(F)F)N(Cc1ccc(-c2ncon2)cc1F)S(=O)(=O)c1ccc(Cl)cc1 [Avagacestat] | < 0 |
| CNCCCC12CCC(c3ccccc31)c1ccccc12 [Maprotiline hydrochloride] | 1.97 |
| COc1ccc(/C=C\c2cc(OC)c(OC)c(OC)c2)cc1NC(=O)[C@@H](N)CO [Ombrabulin] | 45.5 |
| COc1ccc(-c2nc(N3CCOCC3)c3sc(CN(C)c4ncc(C(=O)NO)cn4)cc3n2)cn1 | < 0 |
| Cc1cn2cc(C(=O)N(C)CCO)cc(N[C@@H]3CCOc4cccc(C)c43)c2n1 | < 0 |

| SMILES | reduction in cell viability [%] |
| --- | --- |
| CC1(C)NC(=O)N(c2ccc([N+](=O)[O-])c(C(F)(F)F)c2)C1=O [Nilutamide] | < 0 |
| COc1ccc(OC)c(-c2nnc3ccc(-c4ccc(OC)c(O[C@@H]5CCOC5)c4)nn23)c1 | 3.79 |
| O=c1ccn([C@@H]2O[C@H](CO)[C@@H](O)[C@H]2O)c(=O)[nH]1 [Uridine] | < 0 |
| Cc1ccc(C(=O)Nc2cccc(C(F)(F)F)c2)cc1Nc1nc(-c2cccnc2)nc2c1cnn2C | < 0 |
| Oc1cc(O)c(Cl)cn1 [Gimeracil] | < 0 |
| C[C@H]1O[C@@H](O[C@H]2[C@@H](O)C[C@H](O[C@H]3[C@@H](O)C[C@H](O[C@H]4CC[C@@]5(C)[C@H](CC[C@@H]6[C@@H]5C[C@@H](O)[C@]5(C)[C@@H](C7=CC(=O)OC7)CC[C@]65O)C4)O[C@@H]3C)O[C@@H]2C)C[C@H](O)[C@@H]1O [Digoxin] | 88.6 |
| COc1cc(C(=O)NS(=O)(=O)c2ccccc2C)ccc1Cc1cn(C)c2ccc(NC(=O)OC3CCCC3)cc12 [Zafirlukast] | < 0 |
| Cn1cnc2c(F)c(Nc3ccc(Br)cc3F)c(C(=O)NOCCO)cc21 | 14.4 |
| O=C(/C=C/c1cccc(S(=O)(=O)Nc2ccccc2)c1)NO [Belinostat] | 17.2 |
| CN(C)c1nc(N(C)C)nc(N(C)C)n1 [Altretamine] | < 0 |
| COc1ccc2ccc(=O)oc2c1CC=C(C)C [Ostol] | < 0 |
| CN1CC(=O)N2[C@H](c3ccc4c(c3)OCO4)c3[nH]c4ccccc4c3C[C@@H]2C1=O [Tadalafil] | < 0 |
| OC(c1cc(C(F)(F)F)nc2c(C(F)(F)F)cccc12)C1CCCCN1 (stereo not given) [Mefloquine] | < 0 |
| CN1CCN(c2ccc3nc(-c4c(N)c5c(F)cccc5[nH]c4=O)[nH]c3c2)CC1 [Dovitinib] | < 0 |
| c1ccc([C@H]2CN3CCSC3=N2)cc1 [L-tetramisol] | < 0 |
| COc1ncc(-c2ccc3nccc(-c4ccnnc4)c3c2)cc1NS(=O)(=O)c1ccc(F)cc1F | 63.5 |
| CNC(=O)c1ccc2cc([C@@]3(O)CCn4cncc43)ccc2c1 [Orteronel] | < 0 |
| O=c1c(O)c(-c2ccc(O)cc2)oc2cc(O)cc(O)c12 [Kaempferol] | < 0 |
| Clc1ccc(COC(Cn2ccnc2)c2ccc(Cl)cc2Cl)cc1 (stereo not given) [Econazole nitrate] | < 0 |
